Measured values as given in PubChem BioAssay AID1671190 (National Center for Advancing Translational Sciences (NCATS), 2021).
The whole screen tested about 580,000 compounds, of which about 6,100 (1.1%) were called active. This list was built around the results that the source calls inconclusive (neither active nor inactive); the mix of calls is not that of the screen. The call rests on the fitted dose curve; in most records, active means well fitted inhibition curve with a large enough effect; inconclusive means small, poorly fitted or top-dose-only effect, or another doubt; inactive means no such curve, though single readings can be large or run the other way. A potency beside an inconclusive call is a rough fit, not a confirmed value.
Potency means the concentration at half of the fitted maximal effect.

Chains of the proteins cited; added tags and fusions are not shown.
UniProt P18054, whole entry, looked up: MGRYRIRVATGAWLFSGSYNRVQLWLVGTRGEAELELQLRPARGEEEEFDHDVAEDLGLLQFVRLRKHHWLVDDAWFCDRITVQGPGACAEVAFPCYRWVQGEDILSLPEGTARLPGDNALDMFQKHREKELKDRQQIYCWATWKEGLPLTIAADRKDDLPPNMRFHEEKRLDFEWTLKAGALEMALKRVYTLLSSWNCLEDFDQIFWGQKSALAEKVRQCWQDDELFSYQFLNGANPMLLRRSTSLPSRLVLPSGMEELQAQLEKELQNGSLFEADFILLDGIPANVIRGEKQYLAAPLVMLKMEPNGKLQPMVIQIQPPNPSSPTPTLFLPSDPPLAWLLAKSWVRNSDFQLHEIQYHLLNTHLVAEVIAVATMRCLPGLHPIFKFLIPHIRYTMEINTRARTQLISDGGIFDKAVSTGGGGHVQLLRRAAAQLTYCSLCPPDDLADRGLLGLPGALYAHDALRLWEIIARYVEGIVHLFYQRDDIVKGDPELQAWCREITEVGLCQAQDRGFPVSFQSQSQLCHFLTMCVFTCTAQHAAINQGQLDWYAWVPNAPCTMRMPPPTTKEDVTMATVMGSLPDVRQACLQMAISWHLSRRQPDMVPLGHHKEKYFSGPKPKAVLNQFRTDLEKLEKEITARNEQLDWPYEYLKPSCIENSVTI

Each molecule was assayed against Polyunsaturated fatty acid lipoxygenase ALOX12 (Homo sapiens) (UniProt P18054) (assay: Primary qHTS assay for inhibitors of human arachidonate 12S-lipoxygenase (ALOX12): Round 2). Details: purified 12hLO, xylenol orange hydroperoxide absorbance; series mostly up to 108 µM.
Method in brief: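 Purified human 12hLO (150 nM final) in 25 mM Hepes, 0.01% Triton X-100, pH 7.0 was preincubated 15 min at room temperature with compound. Then 40 uM arachidonic acid was added, 30 min. Hydroperoxide was read by Fe-XO absorbance ratio 573/405 nm.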
`COc1ccc(/C=N/n2cnc3c([nH]c4ccccc43)c2=O)cc1CO` was tested, and the Potency was “inactive”.
For `Cc1c(/C=N/Nc2nc3ccccc3[nH]2)c2ccccc2n1C`, the Potency was inconclusive: 50.1 µM [inhibitor, partial curve, poor fit].
With `CCC(CC)NC(=O)[C@H]1CCC[C@H]1NC(=O)c1ccc(OC)nc1` the Potency was “inactive”.
In the case of `N#Cc1c(N2CCN(c3ccc([N+](=O)[O-])cc3)CC2)[n+](=O)c2ccc(Cl)cc2n1[O-]`, the Potency is reported as “inactive”.
With `Cc1cccc(C)c1NC(=O)CN(C)C(=O)c1cccc(-n2cccc2)c1` the Potency was inconclusive: 79.4 µM [inhibitor, partial curve, poor fit].
For `Cc1ccc2c(n1)sc1c(-c3ccccc3)c(C#N)c(N)nc12`, the Potency was “inactive”.
`CC(C)(C)C(=O)Nc1cccc(C(=O)Oc2ccccc2C#N)c1` was tested, and the Potency was inconclusive: 70.8 µM [inhibitor, partial curve, poor fit].
With `O=C(CN1CCN(c2ccccc2)CC1)Nc1cccc2ncccc12` the Potency was “inactive”.
For `Cc1cc(NC(=O)CSc2nc3c(c(=O)n2-c2ccc(Br)cc2)SCC3)no1`, the Potency was inconclusive: 50.1 µM [inhibitor, partial curve, poor fit].
In the case of `CCCc1nc(NCCCOCC)c2nnn(Cc3ccccc3)c2n1`, the Potency is reported as inconclusive: 112 µM [inhibitor, partial curve, poor fit].
For `O=C(Nc1ccccc1C(F)(F)F)c1nc2ccccc2nc1N1CCOCC1`, the Potency was “inactive”.
With `CCC(=O)Nc1cccc(NC(=O)c2ccc3c(c2)OCCO3)c1` the Potency was inconclusive: 44.7 µM [inhibitor, partial curve, poor fit].
For `CCC(C)NC(=O)CCNC(=O)c1ccc2nc(C)c(C)nc2c1` (stereo not given), the Potency was inconclusive: 100 µM [inhibitor, partial curve, poor fit].
For `Cc1ccc(NC(=O)CSc2nncn3c2cc2sccc23)cc1F`, the Potency was inconclusive: 126 µM [inhibitor, partial curve, poor fit].
With `CCc1ccc(-c2csc(Nc3cccc(C)n3)n2)cc1` the Potency was inconclusive: 70.8 µM [inhibitor, single point].
For `Cc1nc2scc(-c3ccc(C(C)(C)C)cc3)c2c(=O)n1N`, the Potency was “inactive”.
In the case of `CC(C)CCn1c(Oc2ccc(Cl)cc2)nc2c1c(=O)n(C)c(=O)n2C`, the Potency is reported as inconclusive: 89.1 µM [inhibitor, single point].
In the case of `O=C1Nc2cc(C(=O)N3CCN(c4ccccc4)CC3)ccc2N2CCCC12` (stereo not given), the Potency is reported as inconclusive: 7.08 µM [inhibitor, full curve].
In the case of `CCOc1ccc2nc3c(cc2c1)CN(CCCO)C(=NCCOC)S3`, the Potency is reported as inconclusive: 44.7 µM [inhibitor, partial curve, poor fit].
In the case of `O=C(Cc1cccc([N+](=O)[O-])c1)Nc1ccccc1`, the Potency is reported as inconclusive: 126 µM [inhibitor, partial curve, poor fit].
For `CC(=O)N1CCN(C[C@@H]2C=C(C)[C@H](Cc3nnc(-c4cccnc4)o3)C[C@H]2C(C)C)CC1`, the Potency was inconclusive: 8.91 µM [inhibitor, full curve, poor fit].
`O=c1cc(-c2ccccc2)c2ccc(OC/C=C/c3ccccc3)cc2o1` was tested, and the Potency was inconclusive: 63.1 µM [inhibitor, single point].
In the case of `CN1C(=O)C(CC(=O)Nc2ccc(Cl)cc2)N(Cc2ccco2)C1=S` (stereo not given), the Potency is reported as inconclusive: 50.1 µM [inhibitor, partial curve, poor fit].
With `Cc1cccc(NC(=O)CCn2nc(C)c3c(C)n(-c4ccccc4)nc3c2=O)c1C` the Potency was inconclusive: 112 µM [inhibitor, partial curve, poor fit].
For `c1ccc(CCc2cc3ccccc3[nH]2)cc1`, the Potency was inconclusive: 56.2 µM [inhibitor, partial curve, poor fit].
For `C=CC(C)(CCC=C(C)C)OC(=O)c1ccccc1` (stereo not given), the Potency was “inactive”.
For `COCCN(C(=O)CN1CCc2ccccc21)c1c(N)n(Cc2ccccc2)c(=O)[nH]c1=O`, the Potency was inconclusive: 25.1 µM [inhibitor, single point].
With `C/C(=N\NC(=S)Nc1ccc(C)cc1)c1ccc([N+](=O)[O-])cc1` the Potency was inconclusive: 5.01 µM [inhibitor, full curve].
With `O=C(Nc1ccccc1)Nc1c(NC2CCCC2)c2ccccc2oc1=O` the Potency was inconclusive: 112 µM [inhibitor, partial curve, poor fit].
For `Cc1ccc(-n2[nH]c(C)c(C=Nc3cc(C)ccn3)c2=O)cc1`, the Potency was inconclusive: 39.8 µM [inhibitor, single point].
For `S=c1[nH]nc(C2CCCCC2)n1/N=C/c1cccc(Br)c1`, the Potency was “inactive”.
For `COc1ccc(OC)c(-n2c(O)cnc2Nc2nc(C)cc(C)n2)c1`, the Potency was inconclusive: 35.5 µM [inhibitor, partial curve, poor fit].
For `CCCCNC(=S)N(CCO)Cc1cc2cc3c(cc2[nH]c1=O)OCCO3`, the Potency was inconclusive: 35.5 µM [inhibitor, partial curve, poor fit].
With `COC(=O)Cn1c(=O)c2c(nc3n2CC(C)CN3CCc2ccccc2)n(C)c1=O` (stereo not given) the Potency was inconclusive: 28.2 µM [inhibitor, single point].
For `O=C(Nc1cccc(S(=O)(=O)N2CCCCCC2)c1)C1CC(=O)N(c2ccc3c(c2)OCCO3)C1` (stereo not given), the Potency was inconclusive: 44.7 µM [inhibitor, partial curve, poor fit].
For `COc1cc(OC)c(/C=N/NC(N)=S)cc1Br`, the Potency was inconclusive: 44.7 µM [inhibitor, partial curve, poor fit].
With `Fc1ccc(CCNC(=S)c2cccs2)cc1` the Potency was inconclusive: 112 µM [inhibitor, single point].
With `CC(NC(=O)CCCN1C(=O)CCn2nc(-c3cn(C)c4ccccc34)cc21)c1ccccc1` (stereo not given) the Potency was “inactive”.
For `Cc1ccc(Nc2nc(CSc3nnc(-c4cccnc4)n3-c3ccccc3F)cs2)cc1`, the Potency was “inactive”.
With `O=C(CSc1nc2ccccc2o1)Nc1cc(Cl)cc(Cl)c1` the Potency was “inactive”.
With `CCOC(=O)c1c(C)oc2nc(C)nc(NCC3CCN(Cc4ccc(F)cc4)CC3)c12` the Potency was “inactive”.
In the case of `O=C(NNS(=O)(=O)c1ccc([N+](=O)[O-])cc1)C1CCCCC1`, the Potency is reported as inconclusive: 50.1 µM [inhibitor, partial curve, poor fit].
In the case of `Cc1ccc(S(=O)(=O)N/N=C/c2ccc(C#N)cc2)cc1`, the Potency is reported as “inactive”.
In the case of `COCCCN1C(=O)c2ccc(C(=O)O)cc2C1=O`, the Potency is reported as inconclusive: 141 µM [inhibitor, single point].
For `CSCc1ccc(C(=O)N2CCCC(Nc3ccc(F)cc3)C2)o1` (stereo not given), the Potency was “inactive”.
In the case of `COc1ccc(C)cc1Nc1nc2ccccc2nc1NS(=O)(=O)c1ccc(Cl)cc1`, the Potency is reported as “inactive”.
In the case of `COc1cccc(CNCc2ccc(OC)c3ccccc23)c1OC`, the Potency is reported as inconclusive: 2.82 µM [inhibitor, full curve].
In the case of `COCCn1nnnc1C(C(C)C)N1CCCC(C)C1` (stereo not given), the Potency is reported as inconclusive: 28.2 µM [inhibitor, partial curve, poor fit].
In the case of `COc1ccc(Nc2ccc3cc(S(=O)(=O)N4CCCC4)ccc3n2)cc1OC`, the Potency is reported as inconclusive: 25.1 µM [inhibitor, partial curve, poor fit].
`COc1ccc([N+](=O)[O-])c(OC)c1C(=O)Nc1ccc(F)cc1F` was tested, and the Potency was inconclusive: 1.41 µM [inhibitor, full curve, poor fit].
In the case of `O=C(O)c1ccccc1C(=O)NCC(O)c1ccccc1` (stereo not given), the Potency is reported as inconclusive: 3.55 µM [inhibitor, full curve, poor fit].
`CC(C)(C)OC(=O)N1CCC(C(=O)Nc2ccc(C(=O)N3CCCC3)cc2)CC1` was tested, and the Potency was inconclusive: 112 µM [inhibitor, single point].
With `Cc1ccc(OCCCN2C(=O)C(=O)c3cc(C)ccc32)cc1` the Potency was inconclusive: 1.78 µM [inhibitor, full curve, poor fit].
In the case of `COc1ccc(Cn2c(C3CCN(C(=O)COc4cccc(C)c4)CC3)n[nH]c2=O)cc1`, the Potency is reported as inconclusive: 22.4 µM [inhibitor, partial curve].
In the case of `O=C(NCCC1=CCCCC1)NC12CC3CC(CC(C3)C1)C2`, the Potency is reported as inconclusive: 44.7 µM [inhibitor, partial curve, poor fit].
For `COc1cc(OC)c(S(=O)(=O)Nc2ccc(C)cn2)cc1NC(C)=O`, the Potency was “inactive”.
With `CCOc1ccc(C(C)(C)CC)cc1-c1csc(N)n1` the Potency was inconclusive: 10 µM [inhibitor, partial curve, poor fit].
In the case of `Cc1cc(N2CCN(C)CC2)nc2ccc(NC(=O)Nc3ccc(F)cc3F)cc12`, the Potency is reported as inconclusive: 112 µM [inhibitor, partial curve, poor fit].
`COc1ccc(-c2cc(-c3cc(OC)ccc3O)[nH]n2)cc1` was tested, and the Potency was inconclusive: 35.5 µM [inhibitor, partial curve].
`Cc1ccc2[nH]c(C(=O)NCCOc3ccccc3)cc2c1` was tested, and the Potency was inconclusive: 50.1 µM [inhibitor, partial curve, poor fit].
With `CN(C)C(=O)c1ccc(-c2cncnc2N2CCNCC2)cc1` the Potency was inconclusive: 44.7 µM [inhibitor, partial curve, poor fit].
In the case of `CCOC(=O)CNC(=O)Nc1cc(C(=O)NCc2ccc(C(C)C)cc2)ccc1N1CCCC1`, the Potency is reported as inconclusive: 112 µM [inhibitor, partial curve, poor fit].
`COC(=O)CC(NC(=O)c1ccc2c(c1)OCCCO2)c1ccc(F)cc1` (stereo not given) was tested, and the Potency was inconclusive: 158 µM [inhibitor, partial curve, poor fit].
With `N#Cc1c(C(F)(F)F)cc(-c2ccco2)nc1SCc1ccccn1` the Potency was inconclusive: 15.8 µM [inhibitor, full curve].
`Cc1ccc(/C=N/NC(=O)c2nnn(-c3nonc3N)c2-c2ccc3c(c2)OCO3)s1` was tested, and the Potency was “inactive”.
